# Data as given in patent US10100070B2, “Borate-based base generator, and base-reactive composition comprising such base generator” (FUJIFILM Wako Pure Chemical Corporation, priority 2014, dated 2018).
# Entries after “also recorded” stand apart in the source; their conditions may differ. Some compounds share one wording; it may come from a single statement.
# Assay: Exposure curing tests using a bisphenol-A-based diglycidyl ether oligomer and an acid anhydride
# Conditions: heated at 120° C. after exposure
row,Molecule,Curing of epoxy with acid anhydride (in words)
1,"1,5,7-triazabicyclo[4.4.0]deca-5-enium 2-(3-benzoylphenyl)propionate [Comp. Ex. 5, reference compound]",curing at an exposed part and a non-exposed part proceeds at the same time
2,"CC(C(=O)[O-])c1cccc(C(=O)c2ccccc2)c1.CC(C)N=C(NC(N(C)C)=[N+](C)C)NC(C)C (stereo not drawn) [Comp. Ex. 6, 1,2-diisopropyl-4,4,5,5-tetramethylbiguanidium 2-(3-benzoylphenyl)propionate, reference compound]",curing at an exposed part and a non-exposed part proceeds at the same time
3,"CCCC[B-](c1ccccc1)(c1ccccc1)c1ccccc1.CN(C)C(=N)NC(N)=[NH2+] [Comp. Ex. 7, 1,1-dimethylbiguanidium triphenyl(n-butyl)borate, reference compound]",not capable of efficiently accelerating a reaction

# Assay: Radical UV curing tests using acrylates
# Conditions: UV irradiation, acrylate curing
row,Molecule,Radical generation (in words)
1,"CC(C)NC(=[N+]=C(N(C)C)N(C)C)NC(C)C.Cc1ccc(C#C[B-](c2ccccc2)(c2ccccc2)c2ccccc2)cc1 [Example 6, 1,2-diisopropyl-4,4,5,5-tetramethylbiguanidium p-tolylethynyl triphenylborate]",not capable of generating a radical; also recorded: does not generate a radical
2,"CCN(CC)C(=O)OCc1c2ccccc2cc2ccccc12 [WPBG-018, 9-anthrylmethyl N,N-diethylcarbamate]",not capable of generating a radical
3,tetrakis(tetramethylguanidino)phosphonium p-tolylethynyl triphenylborate [Example 7],not capable of generating a radical
